# Data source: PubChem BioAssay AID1259267 (Sanger Institute, 2017)
# Assay: 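Kinase and colorectal-mutated gene knock-downs lethal to GP5D cells alone or with drugs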 (primary screen)
# System: human GP5D colorectal cancer cells
# Reagents: siRNA pool against human genes
# Treatment: anchor drugs at low dose: BYL719 1 µM, cetuximab 5 µg/ml, trametinib 10 nM, or DMSO vehicle
# Measured: 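Mean replicate viability versus non-targeting pool, given as knock-down-alone robust z-score, DMSO fraction, and synergy with low-dose BYL719, cetuximab or trametinib (1 µM, 5 µg/ml, 10 nM)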
# Reading the numbers: robust z-score, knock-down alone: higher = more viable cells
# Active means: 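a robust z-score below -3 for the knock-down by itself makes a gene active, i.e. essential alone; synergy scores are ignored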
# Meaning of the calls: active = essential alone; inactive = not essential
# Here is a random part of 794 deposited reagents. Of all reagents, 9 (1.1%) got an active call. 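Viability capped at 1; calls reflect loss of viability from knock-down alone, not synergy with drugs.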 Entries without a mark were called inactive. Not all columns of the deposit are shown. No sequences are given here. Not stated in the record: the amount of reagent, the time to read-out.
Gene,"robust z-score, knock-down alone"
HCK (GeneID 3055),-0.665
EFNB3 (GeneID 1949),-0.469
SRPK3 (GeneID 26576),0.535
TBCK (GeneID 93627),0.817
FER (GeneID 2241),0.817
ETNK1 (GeneID 55500),0.817
FXR1 (GeneID 8087),0.563
FGFR2 (GeneID 2263),-1.9
STK38 (GeneID 11329),-0.854
PRKACB (GeneID 5567),0.579
STK32B (GeneID 55351),0.22
WNK4 (GeneID 65266),-0.228
MAP2K2 (GeneID 5605),0.817
TRIB1 (GeneID 10221),0.817
RBM10 (GeneID 8241),-0.658
HIPK1 (GeneID 204851),0.817
PIKFYVE (GeneID 200576),0.817
PKDCC (GeneID 91461),0.817
ITPKB (GeneID 3707),-0.927

Continued, starting with the last 4 of the part before.
Gene,"robust z-score, knock-down alone"
HIPK1 (GeneID 204851),0.817
PIKFYVE (GeneID 200576),0.817
PKDCC (GeneID 91461),0.817
ITPKB (GeneID 3707),-0.927
MAP2K5 (GeneID 5607),0.817
NEK9 (GeneID 91754),0.817
NR2F2 (GeneID 7026),0.54
PKN1 (GeneID 5585),0.525
EIF2AK3 (GeneID 9451),0.817
COQ8B (GeneID 79934),0.817
AKT2 (GeneID 208),0.817
PASK (GeneID 23178),-1.31
CDK15 (GeneID 65061),0.773
SIK1 (GeneID 150094),-1.71
LMTK1 (GeneID 9625),-2.71
PDK3 (GeneID 5165),-0.711
PRKD3 (GeneID 23683),0.817
PSTK (GeneID 118672),-1.33
PIK3R3 (GeneID 8503),0.817
